Results taken from publication PMC6783548.
No constants are given. Whether binding was seen depends on the method and setting. In cells and extracts the contact can be indirect. Some results given as binding are weak or reduced against the parent protein; the word gives no strength.

The chains behind the UniProt entries cited, without tags or fusion partners. Residues count along the entry.
UniProt P35869, residues 11-848: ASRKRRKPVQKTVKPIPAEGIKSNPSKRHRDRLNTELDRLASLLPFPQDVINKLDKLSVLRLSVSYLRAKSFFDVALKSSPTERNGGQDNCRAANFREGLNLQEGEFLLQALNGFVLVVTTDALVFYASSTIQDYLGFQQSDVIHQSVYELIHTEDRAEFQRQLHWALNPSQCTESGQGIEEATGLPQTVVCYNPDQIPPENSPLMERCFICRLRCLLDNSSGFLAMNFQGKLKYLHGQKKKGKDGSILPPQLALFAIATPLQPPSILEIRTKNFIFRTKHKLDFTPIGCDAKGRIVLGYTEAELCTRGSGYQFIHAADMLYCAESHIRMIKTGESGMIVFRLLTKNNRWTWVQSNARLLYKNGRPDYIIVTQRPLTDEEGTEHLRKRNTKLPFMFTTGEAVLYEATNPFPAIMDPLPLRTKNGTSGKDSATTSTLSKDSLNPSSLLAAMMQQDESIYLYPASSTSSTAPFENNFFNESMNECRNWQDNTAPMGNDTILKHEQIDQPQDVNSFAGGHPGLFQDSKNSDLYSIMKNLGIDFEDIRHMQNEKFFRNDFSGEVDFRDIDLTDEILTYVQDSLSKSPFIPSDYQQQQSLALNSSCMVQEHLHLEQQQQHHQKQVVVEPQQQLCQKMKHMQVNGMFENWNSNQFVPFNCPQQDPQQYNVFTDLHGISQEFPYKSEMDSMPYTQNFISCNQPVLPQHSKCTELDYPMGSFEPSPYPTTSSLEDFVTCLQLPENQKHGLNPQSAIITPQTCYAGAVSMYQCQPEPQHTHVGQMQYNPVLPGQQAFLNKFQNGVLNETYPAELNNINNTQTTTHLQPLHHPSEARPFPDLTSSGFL
UniProt P41738, residues 10-853: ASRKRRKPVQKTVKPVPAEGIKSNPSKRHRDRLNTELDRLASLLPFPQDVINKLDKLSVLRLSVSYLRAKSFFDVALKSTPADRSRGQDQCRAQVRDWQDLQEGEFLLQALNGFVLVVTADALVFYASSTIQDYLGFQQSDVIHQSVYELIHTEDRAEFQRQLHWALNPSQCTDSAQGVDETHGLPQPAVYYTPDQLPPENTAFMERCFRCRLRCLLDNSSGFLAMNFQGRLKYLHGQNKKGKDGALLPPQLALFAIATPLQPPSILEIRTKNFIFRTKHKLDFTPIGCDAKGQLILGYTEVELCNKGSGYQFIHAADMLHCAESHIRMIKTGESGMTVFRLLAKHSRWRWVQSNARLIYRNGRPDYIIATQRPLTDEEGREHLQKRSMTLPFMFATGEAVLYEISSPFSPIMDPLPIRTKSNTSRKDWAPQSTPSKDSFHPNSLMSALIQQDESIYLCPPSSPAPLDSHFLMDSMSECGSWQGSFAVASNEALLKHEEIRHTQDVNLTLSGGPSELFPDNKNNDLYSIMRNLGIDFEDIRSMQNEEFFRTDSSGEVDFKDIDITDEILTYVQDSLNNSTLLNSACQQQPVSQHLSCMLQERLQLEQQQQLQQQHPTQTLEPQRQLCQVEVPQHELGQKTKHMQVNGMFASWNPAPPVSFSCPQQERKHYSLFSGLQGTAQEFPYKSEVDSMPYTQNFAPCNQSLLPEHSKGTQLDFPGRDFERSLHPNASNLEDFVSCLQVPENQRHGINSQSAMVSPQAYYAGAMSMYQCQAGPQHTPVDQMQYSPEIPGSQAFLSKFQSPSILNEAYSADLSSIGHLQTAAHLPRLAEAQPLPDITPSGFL
UniProt P27540: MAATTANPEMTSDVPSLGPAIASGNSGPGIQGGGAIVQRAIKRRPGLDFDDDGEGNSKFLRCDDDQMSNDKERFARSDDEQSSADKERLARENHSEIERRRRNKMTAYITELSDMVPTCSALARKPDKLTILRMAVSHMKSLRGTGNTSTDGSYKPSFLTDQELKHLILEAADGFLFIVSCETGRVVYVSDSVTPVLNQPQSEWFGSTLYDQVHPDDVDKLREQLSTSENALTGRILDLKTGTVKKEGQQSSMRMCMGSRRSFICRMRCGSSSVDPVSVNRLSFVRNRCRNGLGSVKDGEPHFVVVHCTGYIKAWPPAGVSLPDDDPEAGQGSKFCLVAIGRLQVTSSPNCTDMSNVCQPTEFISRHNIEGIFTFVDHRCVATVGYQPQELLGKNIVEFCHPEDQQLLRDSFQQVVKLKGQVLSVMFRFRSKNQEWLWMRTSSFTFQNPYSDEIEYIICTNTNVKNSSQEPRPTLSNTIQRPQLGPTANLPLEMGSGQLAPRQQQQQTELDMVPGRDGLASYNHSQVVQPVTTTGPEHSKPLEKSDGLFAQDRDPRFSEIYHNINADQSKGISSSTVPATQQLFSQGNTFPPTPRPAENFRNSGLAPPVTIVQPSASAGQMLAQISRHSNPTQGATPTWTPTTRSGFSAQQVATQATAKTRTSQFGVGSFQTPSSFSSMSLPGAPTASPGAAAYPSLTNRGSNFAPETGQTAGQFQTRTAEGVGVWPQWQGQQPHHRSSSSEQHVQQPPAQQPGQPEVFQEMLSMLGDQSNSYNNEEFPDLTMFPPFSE
UniProt P41739: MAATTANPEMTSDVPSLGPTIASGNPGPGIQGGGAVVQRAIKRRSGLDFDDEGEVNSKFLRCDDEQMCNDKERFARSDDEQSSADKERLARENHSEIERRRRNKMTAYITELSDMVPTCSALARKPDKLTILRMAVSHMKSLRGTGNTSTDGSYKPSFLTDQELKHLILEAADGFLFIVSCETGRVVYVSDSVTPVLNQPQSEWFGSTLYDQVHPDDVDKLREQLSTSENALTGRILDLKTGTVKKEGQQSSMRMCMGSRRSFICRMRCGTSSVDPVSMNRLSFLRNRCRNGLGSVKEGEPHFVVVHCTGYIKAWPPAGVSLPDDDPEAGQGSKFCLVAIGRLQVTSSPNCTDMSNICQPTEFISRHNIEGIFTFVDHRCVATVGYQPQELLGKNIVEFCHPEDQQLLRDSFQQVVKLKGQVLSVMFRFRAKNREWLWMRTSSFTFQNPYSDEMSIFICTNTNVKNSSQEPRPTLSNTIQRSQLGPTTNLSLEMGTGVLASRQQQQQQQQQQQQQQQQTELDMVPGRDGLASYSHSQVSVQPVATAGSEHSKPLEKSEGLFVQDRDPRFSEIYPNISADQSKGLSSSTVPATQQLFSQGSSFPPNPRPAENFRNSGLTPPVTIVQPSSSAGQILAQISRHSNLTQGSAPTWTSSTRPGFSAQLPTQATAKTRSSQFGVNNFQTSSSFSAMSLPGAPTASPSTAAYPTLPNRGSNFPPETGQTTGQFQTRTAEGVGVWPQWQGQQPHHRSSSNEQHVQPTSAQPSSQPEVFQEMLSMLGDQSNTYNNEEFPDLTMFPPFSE

Assays:
[1] = molecular target: aryl hydrocarbon receptor (AHR) (human (endogenous in THLE-2 and human primary hepatocytes)) (UniProt P35869); assay: co-IP; endogenous proteins in human normal primary hepatocytes incubated with Leflunomide with or without Furafylline
[2] = molecular target: aryl hydrocarbon receptor (AHR) (human (endogenous in THLE-2 and human primary hepatocytes)) (UniProt P35869); assay: co-IP; endogenous proteins in lysates of IL-6-pretreated THLE-2 cells (overexpressing CRP) incubated with Leflunomide alone (NC siRNA); protein A/G-agarose at 4 °C, western blot
[3] = molecular target: aryl hydrocarbon receptor (AHR) (human (endogenous in THLE-2 and human primary hepatocytes)) (UniProt P35869); assay: co-IP; endogenous proteins in THLE-2 lysates (HEPES lysis buffer pH 7.2, 50 mM NaCl, 0.5% Triton X-100), primary antibodies and protein A/G-agarose at 4 °C, western blot; cells treated with DMSO, Leflunomide or A77 1726 at a series of concentrations, CRP siRNA, CRP overexpressing vector, IL-6 pretreatment, HIF1α siRNA, ACF (5.0 μM), hypoxia
[4] = molecular target: aryl hydrocarbon receptor (AHR), rat (rat (endogenous in hepatocytes of SD rats)) (UniProt P41738); assay: co-IP; endogenous proteins in hepatocytes from CRP^L CIA rats, Leflunomide-induced; method not named for this experiment (immunoprecipitation is the paper's only method for this read-out)

| Substance | binding [1] | binding [2] | binding [3] | binding [4] |
| --- | --- | --- | --- | --- |
| AHR nuclear translocator (ARNT) (from UniProt P27540 1-789) | binds | binds weakly | binds | – |
| AHR nuclear translocator (ARNT), rat (from UniProt P41739 1-800) | – | – | – | binds |
